Measurements from paper PMC8831596, “Structures of highly flexible intracellular domain of human α7 nicotinic acetylcholine receptor” (Nature Communications, 2022).
These are yes or no findings as the source states them, for the method shown. Some binding calls cover weakened binding; strength is not graded here.

Chains of the proteins cited; added tags and fusions are not shown. Residues count along the entry.
UniProt P36544, residues 231-494: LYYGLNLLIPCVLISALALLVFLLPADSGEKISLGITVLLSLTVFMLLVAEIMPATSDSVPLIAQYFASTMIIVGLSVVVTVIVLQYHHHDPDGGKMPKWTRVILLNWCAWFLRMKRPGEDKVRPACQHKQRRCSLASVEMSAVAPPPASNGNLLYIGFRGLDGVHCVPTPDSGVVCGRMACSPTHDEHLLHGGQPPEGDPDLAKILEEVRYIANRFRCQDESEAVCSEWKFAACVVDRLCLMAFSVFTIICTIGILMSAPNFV
UniProt Q9NRD5, residues 22-105: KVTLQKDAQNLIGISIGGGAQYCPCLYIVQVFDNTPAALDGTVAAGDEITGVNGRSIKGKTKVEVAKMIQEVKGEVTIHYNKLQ

Target: human α7 nicotinic acetylcholine receptor TMD + ICD construct (L209-V472) (human) (UniProt P36544)
Experiment: SPR; steady state, Biacore 3000, NTA sensor chip, 25 °C; α7nAChR immobilised at 1000-2000 RU; PDZ domain of PICK1 flowed at 30 μl/min; apparent dissociation constants from a Langmuir isotherm; both purified

binding: binds
Substance: PDZ domain of PICK1 (from UniProt Q9NRD5 22-105) (domain or fragment)
